Experimental data taken from patent US20030073656A1.
Results are given in words; binding and its absence hold for the method and conditions named. Some results given as binding are weak or reduced against the parent protein; the word gives no strength.

Sequences of proteins named here, by UniProt entry; tags and fusion partners are left off. A change or cut given only in a name is not applied to a line headed by its entry.
UniProt Q04912: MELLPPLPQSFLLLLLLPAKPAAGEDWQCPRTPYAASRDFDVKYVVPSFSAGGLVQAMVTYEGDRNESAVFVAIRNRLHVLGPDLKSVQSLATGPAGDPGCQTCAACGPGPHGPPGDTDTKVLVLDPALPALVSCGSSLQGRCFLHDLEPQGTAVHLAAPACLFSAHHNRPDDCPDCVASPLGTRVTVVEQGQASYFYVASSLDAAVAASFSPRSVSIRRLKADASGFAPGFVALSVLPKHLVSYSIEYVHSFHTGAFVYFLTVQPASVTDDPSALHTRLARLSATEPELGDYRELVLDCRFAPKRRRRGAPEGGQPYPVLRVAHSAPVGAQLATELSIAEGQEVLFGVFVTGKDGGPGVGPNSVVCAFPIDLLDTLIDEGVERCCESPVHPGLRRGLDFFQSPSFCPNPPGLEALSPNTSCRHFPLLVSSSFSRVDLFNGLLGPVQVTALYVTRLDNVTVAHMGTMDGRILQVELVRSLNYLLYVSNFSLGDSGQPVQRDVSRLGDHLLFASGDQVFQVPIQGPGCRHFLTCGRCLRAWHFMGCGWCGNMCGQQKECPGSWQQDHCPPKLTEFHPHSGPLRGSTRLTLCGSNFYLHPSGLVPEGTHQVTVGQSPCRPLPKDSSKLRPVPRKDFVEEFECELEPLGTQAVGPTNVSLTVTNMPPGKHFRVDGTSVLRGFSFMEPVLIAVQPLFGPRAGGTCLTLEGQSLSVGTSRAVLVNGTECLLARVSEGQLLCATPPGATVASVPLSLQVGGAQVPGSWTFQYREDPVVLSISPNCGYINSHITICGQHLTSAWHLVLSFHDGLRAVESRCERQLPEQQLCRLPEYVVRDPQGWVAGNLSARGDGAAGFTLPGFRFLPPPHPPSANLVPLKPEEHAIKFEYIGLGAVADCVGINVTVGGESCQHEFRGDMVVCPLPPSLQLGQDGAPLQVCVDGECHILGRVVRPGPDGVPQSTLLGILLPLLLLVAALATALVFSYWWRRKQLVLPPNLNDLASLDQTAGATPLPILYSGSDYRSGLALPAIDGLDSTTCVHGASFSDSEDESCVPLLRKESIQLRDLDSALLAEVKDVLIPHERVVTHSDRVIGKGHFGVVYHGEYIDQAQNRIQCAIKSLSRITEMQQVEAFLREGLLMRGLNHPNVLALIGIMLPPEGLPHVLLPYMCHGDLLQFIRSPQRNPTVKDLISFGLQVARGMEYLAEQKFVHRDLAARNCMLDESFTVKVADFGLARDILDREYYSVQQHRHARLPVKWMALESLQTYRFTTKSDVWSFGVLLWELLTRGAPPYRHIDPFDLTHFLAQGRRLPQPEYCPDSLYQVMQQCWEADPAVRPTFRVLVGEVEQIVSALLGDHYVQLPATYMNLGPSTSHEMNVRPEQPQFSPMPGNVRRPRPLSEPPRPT
UniProt P26927: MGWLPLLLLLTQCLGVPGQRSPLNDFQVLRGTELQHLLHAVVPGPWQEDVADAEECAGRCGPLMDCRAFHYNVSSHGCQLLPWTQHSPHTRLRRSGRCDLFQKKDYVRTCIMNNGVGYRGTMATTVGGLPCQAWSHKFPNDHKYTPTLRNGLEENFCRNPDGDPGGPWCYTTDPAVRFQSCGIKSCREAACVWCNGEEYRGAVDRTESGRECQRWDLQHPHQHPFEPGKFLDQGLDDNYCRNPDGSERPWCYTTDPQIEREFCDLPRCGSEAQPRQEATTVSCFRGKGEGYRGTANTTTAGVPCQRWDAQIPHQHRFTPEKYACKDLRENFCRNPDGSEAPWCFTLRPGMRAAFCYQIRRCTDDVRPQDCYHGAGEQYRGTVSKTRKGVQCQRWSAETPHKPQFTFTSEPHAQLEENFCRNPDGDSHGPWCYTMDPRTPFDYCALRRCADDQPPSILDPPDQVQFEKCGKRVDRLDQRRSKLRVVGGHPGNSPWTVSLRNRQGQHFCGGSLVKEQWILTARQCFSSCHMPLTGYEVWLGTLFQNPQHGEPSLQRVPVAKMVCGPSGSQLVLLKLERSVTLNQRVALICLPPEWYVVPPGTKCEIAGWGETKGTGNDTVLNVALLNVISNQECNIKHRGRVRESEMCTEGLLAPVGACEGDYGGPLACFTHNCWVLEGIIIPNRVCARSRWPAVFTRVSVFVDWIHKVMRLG

Columns and labels:
[1] = biological target: RON receptor tyrosine kinase (Homo sapiens (Human)) (UniProt Q04912); assay: RON receptor binding; assay not given
[2] = biological target: RON receptor tyrosine kinase (Homo sapiens (Human)) (UniProt Q04912); assay: direct ELISA, affinity-purified Ron coated on the plate, bound HGFL detected with anti-HGFL antibody

Row | binding [1] | binding [2] | Substance
1 | binds | – | isolated HGFL β chain (from UniProt P26927 484-711) (ligand)
2 | – | binds | processed wild-type human hepatocyte growth factor-like protein (HGFL) (from UniProt P26927 19-483; P26927 484-711) (ligand)
